Measured values reported in patent US20260002931A1, “CULTURED CELL SHEET AND METHOD FOR PRODUCING SAME; METHOD FOR EVALUATING COMPOUND OR DRUG; AND METHOD FOR EVALUATING QUALITY OF CULTURED CELL SHEET” (OJI HOLDINGS CORPORATION, priority 2022, published 2026).

How the values were obtained:
[1] = system: iCell cardiomyocyte CM2 (human iPS cell-derived cardiomyocytes); experiment: Drug safety test-1: motion test method using live cell imaging device (SI8000); type: cell-based; details: for incidence of arrhythmia: wells of 6; for wells in which arrhythmia occurred: over all doses 0.1-1 μM
Description: (§1) The drug was dissolved in DMSO and cumulatively administered. First, the measurement as dose0 was performed without adding drugs. […] Subsequently, immediately after the measurement, the drug was added to the same well, respectively so that the concentration was dose2, and the measurement was performed after 15 minutes. The same was done for dose3.
(§2) For the cell responsiveness after the drug administration, an arrhythmia measurement method by Ca-imaging using a confocal imaging device (CQ1, manufactured by Yokogawa Electric Corporation) and a motion test method using a live cell imaging device (SI8000, manufactured by Sony Corporation) were performed to investigate the effect on the beating rate and the line width of the beating peak.
CM2 on day 5 of maintenance culture was used, and video data was first obtained as Dose0 using SI8000 (manufactured by Sony Corporation) without adding drugs. Immediately after the measurement, each drug at the concentration of dose1 was added to the same well plate, and video data was obtained after 15 minutes. For Dose2 and Dose3, the drug was cumulatively administered in the same manner, and video data was obtained. The addition test of each drug was performed at n=6.
The beating rate (BR), the contractile velocity (CV), the relaxation velocity (RV), and the contraction-relaxation duration (CRD) were analyzed from the video data of S18000, and the effects of the drugs on the motion of the cells were compared. The contraction-relaxation duration (CRD) was corrected by the following equation with reference to the equation of Frederica to correct variation due to the beating rate (BR).
For the side effects seen from the change in the parameters of SI8000, early after depolarization (EAD) and delayed after depolarization (DAD), small regular waveforms (VT-like), and reaction (waveform) disappearance were recorded. Changes in waveforms not classified into EAD or DAD were described as arrhythmia. The “-” in the table indicates the state in which no arrhythmia or the like has occurred.
The degree of arrhythmia is mild for EAD, moderate for DAD, and severe for vt-like.

[2] = system: iCell cardiomyocyte CM2 (human iPS cell-derived cardiomyocytes); experiment: Drug safety test-1: arrhythmia measurement by Ca-imaging (CQ1); type: cell-based; details: wells of 6; for incidence of moderate to severe arrhythmia (DAD, VT-like): aligned plate; for incidence of moderate to severe arrhythmia: planar plate
Description: as §1, §2
To CM2 on day 6 of maintenance culture, a fluorescent Ca indicator (EarlyTox carditotoxicity kit, manufactured by Molecular Devices, LLC.) was added, and living cells were stained. First, the change in Ca fluorescence intensity associated with the contraction of cardiomyocytes was measured as Dose0 in CQ1 without adding drugs. Immediately after the measurement, each drug at the concentration of Dose1 was added to the same well plate, and the change in Ca fluorescence intensity was measured after 15 minutes. For Dose2 and Dose3, the drug was cumulatively administered in the same manner, and the change in Ca fluorescence intensity was measured. The addition test of each drug was performed at n=6.
The significant difference test was performed between the subject group in which DMSO was added and the drug addition group in CM2 cultured in the planar plate and CM2 cultured the aligned plate.
For the side effects seen from the waveform changes of Ca transient, early after depolarization (EAD) and delayed after depolarization (DAD), small regular waveforms (VT-like), and reaction (waveform) disappearance were recorded. The“−” in the table indicates the state in which no arrhythmia or the like has occurred. The degree of arrhythmia is mild for EAD, moderate for DAD, and severe for vt-like.

Cc1cccc(CCN2CCC(C(=O)c3ccc(NS(C)(=O)=O)cc3)CC2)n1 [E-4031]
incidence of arrhythmia ([1]; aligned plate, high concentration (Dose3, 1 μM)): 1/6
incidence of arrhythmia ([1]; aligned plate, low concentration (Dose1, 0.1 μM)): 1/6
incidence of arrhythmia ([1]; aligned plate, medium concentration (Dose2, 0.3 μM)): 1/6
wells in which arrhythmia occurred ([1]; aligned plate): 1 of 6
incidence of arrhythmia ([1]; planar plate, high concentration (Dose3, 1 μM)): 6/6
incidence of arrhythmia ([1]; planar plate, low concentration (Dose1, 0.1 μM)): 3/6
incidence of arrhythmia ([1]; planar plate, medium concentration (Dose2, 0.3 μM)): 5/6
wells in which arrhythmia occurred ([1]; planar plate): 6 of 6
incidence of moderate to severe arrhythmia (DAD, VT-like) ([2]; E-4031 Dose1, 0.1 μM): 0/6
incidence of moderate to severe arrhythmia (DAD, VT-like) ([2]; E-4031 Dose2, 0.3 μM): 1/6
incidence of moderate to severe arrhythmia (DAD, VT-like) ([2]; E-4031 Dose3, 1 μM): 4/6
incidence of moderate to severe arrhythmia ([2]; E-4031 Dose1, 0.1 μM): 3/6
incidence of moderate to severe arrhythmia ([2]; E-4031 Dose2, 0.3 μM): 6/6
incidence of moderate to severe arrhythmia ([2]; E-4031 Dose3, 1 μM): 6/6
